Experimental data published in article PMC11164899, “A novel inhibitory BAK antibody enables assessment of non-activated BAK in cancer cells” (Cell Death and Differentiation, 2024).
Results are given in words; binding and its absence hold for the method and conditions named. Binding calls can cover weak binding; strength is not graded here.

Target: BAKΔcysΔN22ΔC25 CT His with K113C mutation (human)
Assay: cross-linking; 9 µM BAK K113C with or without pre-incubation with 1.5× 14G6, then 4× BID R84C BH3 peptide, with or without 2 mM CuPhe, 1 h at room temperature; disulfide link seen as a band shift on non-reducing SDS-PAGE; both purified

binding: binds
B1: BID R84C BH3 peptide (peptide)
peptide: DSESQEDIICNIARHLAQVGDSMDRSIPPGLVNGL
modifications: biotin on the N-terminus; C-terminal amide
